No constants are given. Whether binding was seen depends on the method and setting. In cells and extracts the contact can be indirect. Some binding calls cover weakened binding; strength is not graded here.
Molecular target: T1, Mouse NPTX1 (Neuronal Pentraxin 1), native protein in mouse brain lysate or neurons (mouse) (UniProt Q62443)
T1 sequence: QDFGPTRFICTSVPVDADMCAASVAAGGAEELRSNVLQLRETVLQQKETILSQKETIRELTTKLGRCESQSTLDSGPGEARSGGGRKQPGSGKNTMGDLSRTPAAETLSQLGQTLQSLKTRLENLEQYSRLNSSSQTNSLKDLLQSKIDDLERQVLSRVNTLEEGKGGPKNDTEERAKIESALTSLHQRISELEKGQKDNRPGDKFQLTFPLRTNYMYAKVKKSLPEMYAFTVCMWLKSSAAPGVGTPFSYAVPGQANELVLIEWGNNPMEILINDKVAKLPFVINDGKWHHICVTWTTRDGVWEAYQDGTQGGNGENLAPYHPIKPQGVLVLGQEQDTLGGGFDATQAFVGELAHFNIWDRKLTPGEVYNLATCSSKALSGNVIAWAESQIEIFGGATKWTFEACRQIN
Assay: co-immunoprecipitation from mouse brain lysate, Western blot

- binding: binds
B1: Mouse NPTX2 (Neuronal Pentraxin 2), native protein in mouse brain lysate (protein)
chain: AGRAQDSPIPGSRFVCTALPPEAARAGCPLPAMPMQGGALSPEEELRAAVLQLRETVVQQKETLGAQREAIRELTGKLARCEGLAGGKARGTGKDTMGDLPRDPGHVVEQLSRSLQTLKDRLESLELQLRTNVSNAGLPSDFREVLQRRLGELERQLLRKVAELEDEKSLLHNETSAHRQKTESTLNALLQRVTELERGNSAFKSPDAFKVSLPLRTNYLYGKIKKTLPELYAFTICLWLRSSASPGIGTPFSYAVPGQANEIVLIEWGNNPIELLINDKVAQLPLFVSDGKWHHICITWTTRDGMWEAFQDGEKLGTGENLAPWHPIKPGGVLILGQEQDTVGGRFDATQAFVGELSQFNIWDRVLRAQEIINIANCSTNMPGNIIPWVDNNVDVFGGASKWPVETCEERLLDL
